Experimental data: the supplement of paper PMC12889115
This is one part of the list. Values are raw readings; no control value is given beside them.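 In the initial screen, polymyxin B was used at a concentration that permeabilizes Salmonella's outer membrane but not its inner membrane. Maximum growth was set by DMSO wells with or without polymyxin B. Since plates varied, data were ranked per plate, and compounds giving the lowest OD600 advanced as hits.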

Tested on: Salmonella enterica serovar Typhimurium SL1344
Experiment: bacterial growth OD600 after 18 h with compound and polymyxin B; higher = more bacterial growth (less inhibition)
Conditions: 50 µM, Mueller-Hinton broth

Row | Compound | bacterial growth OD600 (polymyxin B 1 µg/mL) | bacterial growth OD600 (polymyxin B 0.75 µg/mL)
1 | COCCCNc1nc2nonc2nc1N(C)C1CC(C)(C)NC(C)(C)C1 | 0.914 | –
2 | COc1cc(-c2nc(CN3C[C@@H]4C[C@H](C3)c3cccc(=O)n3C4)c(C)o2)cc2c1OCO2 | 0.792 | –
3 | O=C(c1cccc(Cl)c1)C1CCCN(C2CCCC2)C1 (configuration not stated) | – | 0.857
4 | O=C(c1cccc2ccccc12)C1CCCN(Cc2cc[nH]n2)C1 (configuration not stated) | 0.776 | –
5 | Cc1ccc(C(=O)Nc2ccc(N3CCC(NC(C)Cc4cccnc4)CC3)cc2)c(C)c1 (configuration not stated) | – | 0.818
6 | Cc1ccc(C(C)Nc2ccc(-c3nc(C4CC4)no3)cn2)cn1 (configuration not stated) | 1.05 | –
7 | COc1ccc(Cl)cc1C(=O)C1CCCN(Cc2cccc(C)n2)C1 (configuration not stated) | 0.61 | –
8 | COc1c(C)cc(C(=O)C2CCCN(Cc3cn(C)nc3C)C2)cc1C (configuration not stated) | 0.884 | –
9 | O=C(c1ccc(Cl)cc1)C1CCCN(Cc2cccc3c2OCO3)C1 (configuration not stated) | 0.329 | –
10 | COc1ccc(C(=O)C2CCCN(Cc3cccc(F)c3)C2)cc1OC (configuration not stated) | 0.817 | –
11 | O=C(NCc1ccc(F)c(F)c1)c1cn(C2CCCCC2)nn1 | 0.532 | –
12 | CC(Cc1cnccn1)NCc1c(C(=O)N2CCCCCCC2)nc2ccc(Cl)cn12 (configuration not stated) | – | 0.66
13 | COc1ccc(Cl)cc1C(=O)C1CCCN(Cc2cnc(SC)nc2)C1 (configuration not stated) | 0.056 | –
14 | COc1ccc(OC)c(CC(=O)N(C)C2CCCN(C3Cc4ccccc4C3)C2)c1 (configuration not stated) | 0.022 | –
15 | COc1cc(C)c(-c2nc(CN3C[C@@H]4C[C@H](C3)c3cccc(=O)n3C4)c(C)o2)cc1C | 0.902 | –
16 | O=C1O[C@@H]2CN(Cc3nccs3)C[C@@H]2N1CCc1ccccn1 | – | 0.878
17 | O=C(NCc1ccccc1OC(F)(F)F)c1cn(C2CCCCC2)nn1 | 0.839 | –
18 | Cc1cc(Cl)ccc1C(=O)C1CCCN(Cc2cccnc2)C1 (configuration not stated) | 0.786 | –
19 | O=C(c1cccs1)C1CCCN(Cc2nc(-c3ccccn3)no2)C1 (configuration not stated) | 0.953 | –
20 | O=C(c1cn(C2CCCCC2)nn1)N(Cc1ccccc1)CC1CCC1 | 0.024 | –
21 | CCCn1cc(CN2CCCC(C(=O)c3ccc(Cl)cc3)C2)c(C)n1 (configuration not stated) | – | 0.559
22 | CC(Cc1cccnc1)NC1CCN(c2ccc(NC(=O)CCc3ccccc3)cc2)CC1 (configuration not stated) | – | 0.72

Ordered by molecular weight (low to high): some entries from above
Row | Compound | bacterial growth OD600 (polymyxin B 1 µg/mL) | bacterial growth OD600 (polymyxin B 0.75 µg/mL)
18 | Cc1cc(Cl)ccc1C(=O)C1CCCN(Cc2cccnc2)C1 (configuration not stated) | 0.786 | –
1 | COCCCNc1nc2nonc2nc1N(C)C1CC(C)(C)NC(C)(C)C1 | 0.914 | –
5 | Cc1ccc(C(=O)Nc2ccc(N3CCC(NC(C)Cc4cccnc4)CC3)cc2)c(C)c1 (configuration not stated) | – | 0.818
